The values below come from patent US11730819B2 (priority 2016, dated 2023).

The nature of this series: general procedure: Fmoc solid-phase peptide synthesis. The conditions noted are these: for crude purity (method not given): cyclisation step; for conjugation yield: conjugation step.

Strings that start with PEPTIDE1 are HELM notation: dots part the residues, brackets hold end groups and non-standard residues.

For “(PYA)-(B-Ala)-Sar10-A(Dap)(D-Ala)NE(1Nal)(D-Ala)CEDFYD(tBuGly)(Dap)”, the “crude purity (method not given)” value is 60%.

“Ac-A(Dap(Me))(D-Ala)NE(1Nal)(D-Ala)CEDFYD(tBuGly)(Dap(Me))”: the “crude purity (method not given)” value is 96%.

With “Ac-A(Dap)(D-Ala)NE(1Nal)(D-Ala)CEDFFD(tBuGly)(Dap)”, the “crude purity (method not given)” value stood at 95%.

Turning to “Ac-A(Dap)(D-Ala)NE(1Nal)(D-Ala)CEDFYD(tBuGly)(Dap)”, the “crude purity (method not given)” value was found to be 94%.

“PEPTIDE1{[MMAE-PABC-Cit-Val-glutaryl].[bAla].[Sar].[Sar].[Sar].[Sar].[Sar].[Sar].[Sar].[Sar].[Sar].[Sar].A.[DapMe].[dA].N.E.[1Nal].[dA].C.E.D.F.Y.D.[tBuGly].[DapMe].[am]}|CHEM1{[TBMB]}$PEPTIDE1,CHEM1,14:R3-1:R1|PEPTIDE1,CHEM1,20:R3-1:R2|PEPTIDE1,CHEM1,27:R3-1:R3$$$V2.0” came in with a conjugation yield of 29%.

As to “PEPTIDE1{[MMAE-PABC-Cit-Val-trz-PYA].A.[DapMe].[dA].N.E.[1Nal].[dA].C.E.D.F.Y.D.[tBuGly].[DapMe].[am]}|CHEM1{[TBMB]}$PEPTIDE1,CHEM1,3:R3-1:R1|PEPTIDE1,CHEM1,9:R3-1:R2|PEPTIDE1,CHEM1,16:R3-1:R3$$$V2.0”, the conjugation yield is on record as 42%.

“PEPTIDE1{[MMAE-PABC-Cit-Val-trz-PYA].A.[Dap].[dA].N.E.[1Nal].[dA].C.E.D.F.Y.D.[tBuGly].[Dap].[am]}|CHEM1{[TBMB]}$PEPTIDE1,CHEM1,3:R3-1:R1|PEPTIDE1,CHEM1,9:R3-1:R2|PEPTIDE1,CHEM1,16:R3-1:R3$$$V2.0” showed a conjugation yield of 41.02%.

In turn, “PEPTIDE1{[MMAE-PABC-Cit-Val-trz-PYA].[bAla].[Sar].[Sar].[Sar].[Sar].[Sar].[Sar].[Sar].[Sar].[Sar].[Sar].A.[DapMe].[dA].N.E.[1Nal].[dA].C.E.D.F.Y.D.[tBuGly].[DapMe].[am]}|CHEM1{[TBMB]}$PEPTIDE1,CHEM1,14:R3-1:R1|PEPTIDE1,CHEM1,20:R3-1:R2|PEPTIDE1,CHEM1,27:R3-1:R3$$$V2.0” had a conjugation yield of 35%.

Substance “PEPTIDE1{[MMAE-PABC-Cit-Val-trz-PYA].[bAla].[Sar].[Sar].[Sar].[Sar].[Sar].[Sar].[Sar].[Sar].[Sar].[Sar].A.[Dap].[dA].N.E.[1Nal].[dA].C.E.D.F.Y.D.[tBuGly].[Dap].[am]}|CHEM1{[TBMB]}$PEPTIDE1,CHEM1,14:R3-1:R1|PEPTIDE1,CHEM1,20:R3-1:R2|PEPTIDE1,CHEM1,27:R3-1:R3$$$V2.0” showed a conjugation yield of 54.64%.
